Reference: PubChem BioAssay AID1259254 (NCATS, 2017)
Screen: 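Genome-wide screen for genes that prevent DNA re-replication in cancer cells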 (primary screen). Cell system: human HCT116 colorectal cancer cells. Reagent: single siRNA against human genes. Duration: 3 days. Measurement: 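Nuclei stained with Hoechst and imaged; cell-cycle phase assigned by DNA content; G2 share scaled per plate, non-targeting siRNA 0%, GMNN siRNA 100%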. Scale: G2 robust z-score: higher = more G2 cells, more excess DNA replication. Call rule: 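Active siRNAs have a G2 robust z of 5 or more median absolute deviations over the median, which in these data means about 38% or higher of GMNN control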.
In all, the deposit lists about 59,000 reagents; shown is a part drawn at random. About 1,550 of them (2.6%) were called active. 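G2 share is only a proxy for re-replication; each gene was hit by three separate siRNAs, and active genes were retested.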 The numbers tell different reagents against one gene apart. Not all columns of the deposit are shown. Not given: the amount of reagent.

TMEM183A (GeneID 92703) #1 showed G2 robust z-score -0.887; inactive.
For TMEM183A (GeneID 92703) #2 the deposit lists G2 robust z-score 1.86; inactive.
TMEM183A (GeneID 92703) #3 scored G2 robust z-score 0.307; inactive.
Depletion of BEST2 (GeneID 54831) #1 came out at: G2 robust z-score 0.314; inactive.
For BEST2 (GeneID 54831) #2, the entry reads G2 robust z-score 5.25; active.
For BEST2 (GeneID 54831) #3, the values are G2 robust z-score -0.414; inactive.
GFPT1 (GeneID 2673) #1 showed G2 robust z-score -0.762; inactive.
GFPT1 (GeneID 2673) #2 scored G2 robust z-score -0.732; inactive.
Against GFPT1 (GeneID 2673) #3, the entry reads G2 robust z-score 0.0442; inactive.
C1QTNF2 (GeneID 114898) #1 gave G2 robust z-score 0.536; inactive.
Depletion of C1QTNF2 (GeneID 114898) #2 came out at: G2 robust z-score 7.41; active.
Knock-down of C1QTNF2 (GeneID 114898) #3 came out at: G2 robust z-score -0.552; inactive.

2 consecutive entries from above, for reference:
GFPT1 (GeneID 2673) #2 — G2 robust z-score = -0.732; call = inactive
GFPT1 (GeneID 2673) #3 — G2 robust z-score = 0.0442; call = inactive

Next entries:
With knock-down of MNS1 (GeneID 55329) #1 the results were G2 robust z-score -0.319; inactive.
Depletion of MNS1 (GeneID 55329) #2 gave: G2 robust z-score 0.327; inactive.
Silencing of MNS1 (GeneID 55329) #3 resulted in: G2 robust z-score 1.35; inactive.
PPP2R5E (GeneID 5529) #1 scored G2 robust z-score -0.728; inactive.
PPP2R5E (GeneID 5529) #2 showed G2 robust z-score -0.973; inactive.
For PPP2R5E (GeneID 5529) #3 the deposit lists G2 robust z-score 0.499; inactive.
After knock-down of ADAM18 (GeneID 8749) #1 the results were G2 robust z-score 3.86; inactive.
Against ADAM18 (GeneID 8749) #2, the entry reads G2 robust z-score 1.16; inactive.
Silencing of ADAM18 (GeneID 8749) #3 came out at: G2 robust z-score -0.924; inactive.
SLC9A7 (GeneID 84679) #1 showed G2 robust z-score -1.27; inactive.
Against SLC9A7 (GeneID 84679) #2 the deposit lists G2 robust z-score -1.52; inactive.
For SLC9A7 (GeneID 84679) #3, the values are G2 robust z-score -0.606; inactive.
